Structures were worked out from names or drawings and are uncertain. A number of entries come with more than one value. They are shown here; other results are not. An entry can have further records. Values given together read as repeated measurements (runs, samples, wells or individuals).
Molecular target: human adrenergic-α2C receptor (Homo sapiens, UniProt P18825)
Test: Radioligand binding experiment for α2C-adrenoceptor ([3H]-raulwolscine competition, CHO cell membranes)
Conditions: [3H]raulwolscine 1 nM, membranes of CHO cells transfected with human α2C receptor
Protocol: The interaction of the compounds of Formula (I) with α2C-adrenoceptor receptors was assessed in in vitro radioligand binding experiments. In general, a low concentration of a radioligand with a high binding affinity for a particular receptor or transporter is incubated with a sample of a tissue preparation enriched in a particular receptor or transporter or with a preparation of cells expressing cloned human receptors in a buffered medium. During the incubation, the radioligand binds to the receptor or transporter. When equilibrium of binding is reached, the receptor bound radioactivity is separated from the non-bound radioactivity, and the receptor- or transporter-bound activity is counted. The interaction of the test compounds with the receptor is assessed in competition binding experiments. […]
Membranes were thawed and re-homogenized in incubation buffer (glycylglycine 25 mM, pH 8.0). […] Filter-bound radioactivity was determined by scintillation counting in a Topcount (Packard, Meriden, CT) and results were expressed as counts per minute (cpm). Non-specific binding was determined in the presence of 1 μM oxymetazoline for hα2A- and hα2B receptors and 1 μM spiroxatrine for hα2C receptors.
Data from assays in the presence of compound were calculated as a percentage of total binding measured in the absence of test compound. […]

By UniProt entry, the sequences of proteins in these tests, tags left out.
UniProt P18825, whole entry: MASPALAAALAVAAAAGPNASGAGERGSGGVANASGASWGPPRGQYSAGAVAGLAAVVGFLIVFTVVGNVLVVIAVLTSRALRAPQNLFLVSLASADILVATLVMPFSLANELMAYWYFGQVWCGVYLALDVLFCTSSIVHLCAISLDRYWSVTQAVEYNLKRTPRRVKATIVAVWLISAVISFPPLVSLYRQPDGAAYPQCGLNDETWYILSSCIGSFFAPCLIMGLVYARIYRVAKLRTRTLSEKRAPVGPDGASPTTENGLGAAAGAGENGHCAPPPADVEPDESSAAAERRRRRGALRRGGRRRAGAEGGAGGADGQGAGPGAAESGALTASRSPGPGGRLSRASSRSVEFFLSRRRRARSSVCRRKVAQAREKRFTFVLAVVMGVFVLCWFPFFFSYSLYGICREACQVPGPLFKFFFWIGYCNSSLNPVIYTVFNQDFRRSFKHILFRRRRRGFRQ

## O=c1n(CC2CCN(CCOc3ccccc3)CC2)cnn1CCN1CCN(Cc2ccc3ccccc3c2)CC1
  pIC50 α2C: 8.6 and 8.1

From patent US20100029620A1, “SUBSTITUTED TRIAZOLINE, TETRAZOLONE AND IMIDAZOLONE DERIVATIVES FOR USE AS A MEDICINE” (JANSSEN PHARMACEUTICA N.V., priority 2004, published 2010)
